Source: patent publication US10722496B2, “2-iminobiotin for use in the treatment of brain cell injury” (Neurophyxia B.V., priority 2015, dated 2020)

Assay: Bodyweight and blood glucose in 4VO study
Type: in vivo, rat
Conditions: 1.1-30 mg/kg/dose s.c., all groups

For `N=C1N[C@H]2[C@H](CS[C@H]2CCCCC(=O)O)N1` [2-IB, 2-iminobiotin], the blood glucose values was “no significant differences between blood glucose values were found” and the bodyweight over time was “no significant difference between treatment groups”.
